Experimental data published in publication PMC8568140, “Assembly of infectious Kaposi’s sarcoma-associated herpesvirus progeny requires formation of a pORF19 pentamer” (PLoS Biology, 2021).
Results are given in words; binding and its absence hold for the method and conditions named.

B1: KSHV pORF19 carboxyl-terminal domain (pORF19_(KCTD)) (domain or fragment)
chain: ASHRNFTVAIVPGDPHFSVDRDLRGELMPTLYMNQNQWLPSFGPWFISLTDNAMQRRVFPKELKGTVNFQNSTSLKLISHTLTTVASTTADFFADARHLTDTQAALCLVNAYFCQKTSRQLPATPDDLLADLPQKLDLLITQLKQESGPGDFSFTYSNPQERASLAPLNKESRYPTAFFQRHKLHAMMAKAGLFPHNKGTGAPGTAPAMDLVFAITSAMFGSDIPPFSAYQWNLRAGIVALEVFILAYGLLEFGQVARGHPNRRLNLVSLLGPKFQPGALPDPNAPMLKRGQLFSFISEHYIIPTLQANPNAPVSFIFPGIILAALEARSTVSHKQPGPFVNLTGSRFNEIFEILNQQLTFRDPLALLQARTALRLATEEGLDVLLSHPSPPTLLQEIIKSQFGGGDDYDRAYFMVLGCLPVVLAVV
notes: The His tag was removed with carboxypeptidase after a first SEC; Two of the three crystal forms (P21, P6322) were of a selenomethionine derivative; also called wt pORF19_(KCTD); KSHV pORF19 CTD; source: E. coli Rosetta (DE3), purified (HisTrap, SEC); not shown: His tag, C-terminal, cleaved

Columns and labels:
[1] = biological target: HCMV pUL77 carboxyl-terminal domain (pUL77CTD) (human cytomegalovirus (HCMV)) (UniProt P16726); assay: crystal structure; sitting drop, 18°C, 0.08 M Na-cacodylate pH 6.5, 16% PEG 8000, 20% glycerol; P4122, 1.9 Å; one molecule in the asymmetric unit; both purified
[2] = biological target: HCMV pUL77 carboxyl-terminal domain (pUL77CTD) (human cytomegalovirus (HCMV)) (UniProt P16726); assay: SEC; Superdex 200 Increase 10/300 GL, 10 mM Tris pH 7.5, 1 M NaCl (high salt); oligomeric state estimated from the elution volume against a MW standard; both purified
[3] = biological target: KSHV pORF19 carboxyl-terminal domain (pORF19_(KCTD)) (Kaposi's sarcoma-associated herpesvirus (KSHV)) (UniProt Q2HRB3); assay: condition: only in SEC buffer (10 mM Tris pH 7.5, 50 mM NaCl); AUC; sedimentation velocity, 40,000 rpm, 20°C, SEC buffer (10 mM Tris pH 7.5, 50 mM NaCl); c(s) analysis; both purified
[4] = biological target: KSHV pORF19 carboxyl-terminal domain (pORF19_(KCTD)) (Kaposi's sarcoma-associated herpesvirus (KSHV)) (UniProt Q2HRB3); assay: condition: only in low salt SEC buffer (10 mM Tris pH 7.5, 50 mM NaCl); SEC; Superdex 200 Increase 10/300 GL, 10 mM Tris pH 7.5, 50 mM NaCl (low salt); oligomeric state estimated from the elution volume against a MW standard; both purified

Molecule	binding [1]	binding [2]	binding [3]	binding [4]
HCMV pUL77 carboxyl-terminal domain (pUL77CTD) (from UniProt P16726 180-642) (domain or fragment)	no binding	no binding	–	–
B1	–	–	no binding	no binding
